# Reference: PubChem BioAssay AID2685 (National Center for Advancing Translational Sciences (NCATS), 2010)
# The list shows a part of the results. Shown are side measurements of this screen, not its main read-out; they come without a call. The list favours compounds with an active or inconclusive main result. Words in brackets tell the shape of the fitted curve; partial curves, single points and poor fits give uncertain potencies.
# Test: qHTS Assay for Lipid Storage Modulators in Drosophila S3 Cells;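 as to cell number change: cells counted by Cell Tracker Red CMTPX staining in the red channel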
# Conditions: BODIPY lipid droplet fluorescence, 18-24 h; for cell number change: measured here: cell count max response, cells fed with added oleic acid
# Outline: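 Drosophila S3 cells got compounds at several concentrations plus oleic acid (400 uM solution). Laser-scanning cytometry with 488 nm excitation read lipid droplets at 500-530 nm and cells at 575-640 nm. Percent activity was relative to 20 uM Triacsin C.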
# [1] = measured here: lipid fluorescence (Fed channel) AC50, cells fed with added oleic acid
# [2] = measured here: cell number channel AC50, cells fed with added oleic acid
Structure (SMILES),cell number change [%],AC50 [1],AC50 [2]
C/C(=N\NC(=O)C1COc2ccccc2O1)c1ccccn1 (stereo not given),6.09,"20.6 µM [falling, single point]",
CC(=O)Nc1ccc(C(=O)Nc2ccc(S(=O)(=O)N3CCCC3)cc2)cc1,1.02,,
Cc1ccc2nc(SCC(=O)Nc3ccc(C(N)=O)cc3)[nH]c2c1,24.5,,
NC(=O)c1nn(-c2ccccc2)nc1NC(=O)Cn1nnc(-c2ccccc2)n1,2.04,"0.291 µM [rising, full curve, poor fit]",
O=C1CN(C(=O)c2ccccc2F)C(c2ccccc2)c2cc(Cl)ccc2N1 (stereo not given),16.2,,
O=C(NC1CCCC1)C(c1ccccn1)N(C(=O)c1csnn1)c1ccc(F)cc1 (stereo not given),19.3,"6.51 µM [rising, single point]",
CCOc1ccccc1N(CC(=O)O)S(=O)(=O)c1ccc(C)cc1,-5.86,"32.6 µM [falling, single point]",
COc1cccc(N/C(C)=C/C(=O)c2ccc(Br)cc2)c1,3.62,"7.31 µM [rising, partial curve]",
O=C(NC1CCCC1)C(c1ccccc1)N(Cc1ccco1)C(=O)Cc1cccs1 (stereo not given),-22.2,"29.1 µM [falling, single point]",
Cc1ccc(S(=O)(=O)NCC(=O)N(CC2CCCO2)C(C(=O)NC2CCCC2)C(C)C)cc1 (stereo not given),12.1,,
CCN1C/C(=C\c2cccc([N+](=O)[O-])c2)C(=O)/C(=C/c2cccc([N+](=O)[O-])c2)C1,-27,"6.51 µM [falling, partial curve, poor fit]",
CCN(CC)C(=O)COc1coc(CN2CCN(c3ccccc3F)CC2)cc1=O,29.5,,
COc1cc(OC)cc(C(=O)OCC(=O)NC(c2ccccc2)c2ccccc2)c1,40.9,"29.1 µM [falling, single point]","29.1 µM [rising, single point]"
CSc1ccccc1C(=O)NCc1ccc2c(c1)OCO2,,"0.058 µM [rising, full curve, poor fit]",
Cc1cc(C(=O)OCC(=O)Nc2cc(C(F)(F)F)ccc2N2CCOCC2)c(C)o1,-20.9,"0.651 µM [rising, partial curve]",
COc1ccc(C2=NOC(C(=O)NCc3cccnc3)C2)cc1 (stereo not given),28.8,,
C=CCn1c(C)cc(C(=O)CSc2nc3ccccc3o2)c1C,,"0.731 µM [rising, full curve]","0.92 µM [rising, full curve]"
Cc1cc(NCCN2CCOCC2)n2c(nc3ccccc32)c1C#N,-9.39,"6.51 µM [rising, single point]",
O=C(Nc1ccc(N2CCN(C(=O)c3cccs3)CC2)cc1)c1ccc([N+](=O)[O-])o1,-13.3,,
CCC(C(=O)NCC1CCCO1)n1nc(C)c2sc3ccccc3c2c1=O (stereo not given),-2.65,"6.51 µM [falling, single point]",
COc1ccc(N2CCN(C(=O)c3oc4ccccc4c3NC(=O)Cc3cccc(OC)c3)CC2)cc1,6.73,,

# Part of the list above, reformatted:
Structure (SMILES) | cell number change [%] | AC50 [1] | AC50 [2]
COc1ccc(C2=NOC(C(=O)NCc3cccnc3)C2)cc1 (stereo not given) | 28.8 |  | 
C=CCn1c(C)cc(C(=O)CSc2nc3ccccc3o2)c1C |  | 0.731 µM [rising, full curve] | 0.92 µM [rising, full curve]
Cc1cc(NCCN2CCOCC2)n2c(nc3ccccc32)c1C#N | -9.39 | 6.51 µM [rising, single point] | 

# (list continues)

Structure (SMILES),cell number change [%],AC50 [1],AC50 [2]
COc1cc(S(=O)(=O)Nc2c(C)nn(C)c2C)ccc1NC(C)=O,0.926,,"6.51 µM [falling, single point]"
CN(c1ccccc1)S(=O)(=O)c1ccc(C(=O)OCC(=O)NCc2ccco2)cc1,,"16.4 µM [falling, partial curve]","0.206 µM [falling, partial curve, poor fit]"
Cc1cccc(N2CCN(C(=O)n3ccnc3)CC2)c1C,,,"4.11 µM [rising, single point]"
O=C(Nc1cccn(Cc2ccccc2Cl)c1=O)NC1CCCCC1,-3.34,"0.58 µM [falling, full curve]",
c1coc(-c2cc(C3CCNCC3)[nH]n2)c1,-26.5,"0.731 µM [rising, full curve]","0.651 µM [rising, partial curve, poor fit]"
Cc1ccc(OCc2nnc(SCC(=O)Nc3sc(C)c(C)c3C#N)n2C)cc1,-18,,
CSC(=NC#N)N1CCN(c2ccc([N+](=O)[O-])cc2)CC1,,"6.51 µM [falling, single point]","6.51 µM [falling, single point]"
CCCCn1c(=N)n(CC(=O)c2ccc(OC)cc2)c2ccccc21,5.46,"1.46 µM [rising, partial curve]",
O=S(=O)(c1ccccc1)c1nc(Nc2cccc(O)c2)sc1Cl,-24.9,"3.66 µM [falling, full curve]",
CCCC(C)NC(=O)CSc1nnc2ccccn12 (stereo not given),22.5,"16.4 µM [rising, partial curve, poor fit]",
COc1cccc(NC(=O)C2CSC3(C)CCC(=O)N23)c1 (stereo not given),2.66,"23.1 µM [falling, partial curve, poor fit]",
CCn1c(Cc2ccccc2)nnc1SCC(=O)OC(C)C,2.29,"29.1 µM [falling, single point]",
Cc1ccc(-c2ccc(=O)n(CCC(=O)NCCN3CCCCC3C)n2)cc1 (stereo not given),-37.2,"3.66 µM [falling, full curve]","1.3 µM [falling, full curve]"
O=S(=O)(c1ccccc1)N1CCN=C1SCc1ccccc1,2.37,,"2.91 µM [rising, single point]"
CN(C)S(=O)(=O)c1ccc(C(=O)OCC(=O)NC(=O)NCc2ccccc2)cc1,46.2,"29.1 µM [rising, partial curve, poor fit]","0.116 µM [rising, full curve]"
CCCC(=O)Nc1cc(OC)c(OC)cc1C(=O)O,9.61,"0.731 µM [falling, partial curve]","4.11 µM [falling, single point]"
Cn1nnc2sc3c(c2c1=O)CCCC3,40.1,,"29.1 µM [rising, single point]"
COc1ccccc1NS(=O)(=O)c1cc(NC(=O)c2sccc2C)ccc1N1CCCC1,19.4,,
CCN(CCn1cccn1)C(=O)c1cc(COc2ccc(F)cc2Cl)on1,-36.3,"29.1 µM [falling, single point]","23.1 µM [falling, single point]"
Oc1ccccc1NCC(O)Cn1ccc2ccccc21 (stereo not given),-9.21,,
O=C(Nc1cccc2ccccc12)NC1CCCCC1,-25,,

Structure (SMILES),cell number change [%],AC50 [1],AC50 [2]
CC(C)C(NC(=O)C1CCCCC1)C(=O)Nc1ccccn1 (stereo not given),,,"0.651 µM [rising, single point]"
CS(=O)(=O)N1CCC(C(=O)Nc2cccc(C(F)(F)F)c2)CC1,-12.5,,
Cc1cc(C)n(C(=O)CCC(=O)Nc2ccc(C)c(C)c2)n1,-22.5,"11.6 µM [falling, single point]",
CCOC(=O)COc1ccc(S(=O)(=O)Nc2ccc3c(c2)OCCO3)cc1,-42.8,"7.31 µM [falling, partial curve]","20.6 µM [falling, partial curve]"
C=C1c2ccccc2NC(=S)N1Cc1ccc2c(c1)OCO2,41.9,,"11.6 µM [rising, single point]"
COc1cc(S(=O)(=O)N2CCN(C)CC2)c(OC)cc1Cl,-29.5,"0.651 µM [falling, partial curve, poor fit]","0.291 µM [falling, full curve, poor fit]"
CC(C)NS(=O)(=O)c1ccc(OCC(=O)NCc2ccc3c(c2)OCO3)c(Cl)c1,8,,
CN(C)C(/C=C/Nc1ccc(C#N)cc1)=C(C#N)C#N,-25.6,"32.6 µM [falling, single point]",
Cc1ccc(NC(=O)COc2ccc(/C=N/NC(=O)CSCc3ccccc3)cc2)cc1,,"2.31 µM [falling, partial curve]","4.11 µM [falling, partial curve, poor fit]"
O=C(Nc1ccc(F)cc1)c1cc(-c2ccccn2)nc2c(Cl)cccc12,10.2,,
O=C(c1ccco1)N1CCN(C2c3ccccc3-c3ccccc32)CC1,-8.79,,
CC(=O)Nc1ccc(N/C=C/C(=O)c2ccc(Br)cc2)cc1,7.02,"29.1 µM [rising, single point]",
COc1nc(N)nc(NC23CC4CC(CC(C4)C2)C3)n1,,"6.51 µM [rising, single point]",
CC(C)COC(=O)/C(C#N)=C/c1c[nH]c2ccccc12,-39.1,"8.2 µM [falling, partial curve]","7.31 µM [falling, partial curve]"
O=C(COC(=O)c1ccc(F)cc1F)NC(=O)Nc1ccc2c(c1)OCCO2,7.46,"13 µM [rising, partial curve]",
CCOC(=O)c1ccccc1NC(=O)c1ccc(NS(C)(=O)=O)cc1,,"2.06 µM [rising, partial curve]","0.259 µM [rising, full curve, poor fit]"
O=C/C=C/c1c(-c2ccccc2)cc2oc3ccccc3cc1-2,-24.5,,
COc1ccc2nc(/N=C(\N)NC(=O)C(C)(C)C)nc(C)c2c1,-46.8,"13 µM [falling, partial curve]","14.6 µM [falling, single point]"
COCCCn1c(=S)[nH]c2sc3c(c2c1=O)CCCS3,-70.9,,"29.1 µM [falling, single point]"
OCCNc1nc2ccccc2n1-c1ccccc1,-13.8,"3.66 µM [falling, full curve, poor fit]",
O=C(c1nn(Cc2ccccc2)c(=O)c2ccccc12)N1CCc2ccccc2C1,-25.4,"1.3 µM [falling, full curve, poor fit]",
